Reference: patent publication US4530920A (Syntex (U.S.A.) Inc., priority 1983, dated 1985)

Experiments:
[1] = general procedure: Boc solid-phase peptide synthesis; Boc-Pro-O-Resin (chloromethyl-polystyrene/1% divinylbenzene); DCC/1-hydroxybenzotriazole; conditions: whole synthesis, scale 4.0 mmol, acetic acid addition salt
[2] = general procedure: Boc solid-phase peptide synthesis; benzhydrylamino-polystyrene-divinylbenzene resin; DCC/1-hydroxybenzotriazole; conditions: whole synthesis, scale 0.8 mmol, HF salt

Substance | crude mass [1] | crude mass [2]
(pyro)-Glu-His-Trp-Ser-Tyr-D-Deh-Leu-Arg-Pro-NH-CH2 CH3 | 0.53 g | 
pGlu-His-Trp-Ser-Tyr-D-Deh-Leu-Arg-Pro-GlyNH2 |  | 0.8 g
